Laboratory results: PubChem BioAssay AID1224830 (NIAID, 2016)

- Purpose: 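Host factors that control LPS-induced TNF expression in human macrophages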 (primary screen)
- Cells: human THP-1 monocytic leukaemia cells, TNF dual-luciferase reporter clone, PMA-differentiated to macrophage-like cells
- Reagent: siRNA pool against human genes, 50 nM
- Time to read-out: LPS for 4 h, given about 3 days after siRNA transfection
- Treatment: bacterial LPS (TLR4 ligand), 10 ng/ml
- Read-out: 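TNF firefly reporter luminescence divided by renilla, normalised to the plate median, then turned into a robust z-score for each replicate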
- Scale: TNF reporter robust z-score: higher = stronger TNF reporter response to LPS
- Hit rule: 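a well is active when its z-score exceeds 2.8 or falls below -1.5; control wells carry no call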
The whole screen tested about 18,000 reagents; below is a random part of them. About 2,900 of them (16%) count as active. 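Calls are made per well; low scores hint the gene aids the LPS response, high scores that it dampens it.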 Repeated entries: four replicate wells of each siRNA pool.

The first 5 entries as a preview:
B4GALT3 (GeneID 8703) | call = inactive
B4GALT3 (GeneID 8703) | TNF reporter robust z-score = -0.07; call = inactive
B4GALT3 (GeneID 8703) | TNF reporter robust z-score = -0.48; call = inactive
B4GALT3 (GeneID 8703) | TNF reporter robust z-score = -1.04; call = inactive
B4GALT3 (GeneID 8703) | TNF reporter robust z-score = -0.16; call = inactive

The list itself, from the first entry:
B4GALT3 (GeneID 8703) | call = inactive
B4GALT3 (GeneID 8703) | TNF reporter robust z-score = -0.07; call = inactive
B4GALT3 (GeneID 8703) | TNF reporter robust z-score = -0.48; call = inactive
B4GALT3 (GeneID 8703) | TNF reporter robust z-score = -1.04; call = inactive
B4GALT3 (GeneID 8703) | TNF reporter robust z-score = -0.16; call = inactive
FXYD4 (GeneID 53828) | TNF reporter robust z-score = -0.08; call = inactive
FXYD4 (GeneID 53828) | TNF reporter robust z-score = 0.21; call = inactive
FXYD4 (GeneID 53828) | TNF reporter robust z-score = -0.48; call = inactive
FXYD4 (GeneID 53828) | TNF reporter robust z-score = 0.75; call = inactive
STC1 (GeneID 6781) | TNF reporter robust z-score = 0.98; call = inactive
STC1 (GeneID 6781) | TNF reporter robust z-score = 0.78; call = inactive
STC1 (GeneID 6781) | TNF reporter robust z-score = 1.83; call = inactive
STC1 (GeneID 6781) | TNF reporter robust z-score = -1.07; call = inactive
PTCD3 (GeneID 55037) | TNF reporter robust z-score = -0.8; call = inactive
PTCD3 (GeneID 55037) | TNF reporter robust z-score = -0.42; call = inactive
PTCD3 (GeneID 55037) | TNF reporter robust z-score = 0.47; call = inactive
PTCD3 (GeneID 55037) | TNF reporter robust z-score = -0.45; call = inactive
BRAF (GeneID 673) | TNF reporter robust z-score = -1.33; call = inactive
BRAF (GeneID 673) | TNF reporter robust z-score = -1.01; call = inactive
BRAF (GeneID 673) | TNF reporter robust z-score = -1.23; call = inactive
BRAF (GeneID 673) | TNF reporter robust z-score = -0.7; call = inactive
RNF215 (GeneID 200312) | TNF reporter robust z-score = -1.2; call = inactive
RNF215 (GeneID 200312) | TNF reporter robust z-score = -0.74; call = inactive
RNF215 (GeneID 200312) | TNF reporter robust z-score = 0.5; call = inactive
RNF215 (GeneID 200312) | TNF reporter robust z-score = -0.19; call = inactive
DSTN (GeneID 11034) | TNF reporter robust z-score = 0.13; call = inactive
DSTN (GeneID 11034) | TNF reporter robust z-score = -0.5; call = inactive
DSTN (GeneID 11034) | TNF reporter robust z-score = -0.43; call = inactive
DSTN (GeneID 11034) | TNF reporter robust z-score = 0.06; call = inactive
GORASP2 (GeneID 26003) | TNF reporter robust z-score = 0.75; call = inactive
GORASP2 (GeneID 26003) | TNF reporter robust z-score = -0.31; call = inactive
GORASP2 (GeneID 26003) | TNF reporter robust z-score = 1.14; call = inactive
GORASP2 (GeneID 26003) | TNF reporter robust z-score = -0.79; call = inactive
GUCY1B1 (GeneID 2983) | TNF reporter robust z-score = -0.79; call = inactive
GUCY1B1 (GeneID 2983) | TNF reporter robust z-score = -0.91; call = inactive
GUCY1B1 (GeneID 2983) | TNF reporter robust z-score = -1.25; call = inactive
GUCY1B1 (GeneID 2983) | TNF reporter robust z-score = -0.57; call = inactive
TPD52 (GeneID 7163) | TNF reporter robust z-score = -1.19; call = inactive
TPD52 (GeneID 7163) | TNF reporter robust z-score = -0.55; call = inactive
TPD52 (GeneID 7163) | TNF reporter robust z-score = -2.34; call = active
TPD52 (GeneID 7163) | TNF reporter robust z-score = -0.23; call = inactive
STAM (GeneID 8027) | TNF reporter robust z-score = 3.62; call = active
STAM (GeneID 8027) | TNF reporter robust z-score = 0.95; call = inactive
STAM (GeneID 8027) | TNF reporter robust z-score = 0.17; call = inactive
STAM (GeneID 8027) | TNF reporter robust z-score = 1.18; call = inactive
ALPK2 (GeneID 115701) | TNF reporter robust z-score = 1.16; call = inactive
ALPK2 (GeneID 115701) | TNF reporter robust z-score = 0.48; call = inactive
ALPK2 (GeneID 115701) | TNF reporter robust z-score = 2.03; call = inactive
ALPK2 (GeneID 115701) | TNF reporter robust z-score = 0.05; call = inactive
